Measured values taken from patent publication US20210379010A1, “COMPOSITIONS COMPRISING CANNABINOIDS FOR USE IN THE TREATMENT OF BIOFILM AND CONDITIONS ASSOCIATED WITH MICROBIAL, FUNGAL, BACTERIAL INFECTIONS” (Yissum Research Development Company of The Hebrew …, priority 2018, published 2021).
Some results were stated once for a whole list of compounds, not compound by compound. For at least one compound, name, drawing or mass did not settle the structure.

Columns and labels:
S. aureus MRSA 24433 = assay: Growth of MRSA 24433, cannabinoid alone and combined with antibiotic (MIC/FIC/FICI); assay type: cell-based; settings: MRSA 24433 growth; for decrease of MIC in combination: AEA with methicillin vs agent alone
[1] = test system: S. aureus MRSA 24433 biofilm; assay: Biofilm formation of MRSA 24433, cannabinoid alone and combined with antibiotic (MBIC/FBIC/FBICI); assay type: cell-based; settings: AEA with methicillin vs agent alone

| SMILES | MIC AEA (S. aureus MRSA 24433; AEA alone, Table 1) | decrease of MIC in combination (S. aureus MRSA 24433) | decrease of MBIC in combination [1] |
| --- | --- | --- | --- |
| CCCCC/C=C\C/C=C\C/C=C\C/C=C\CCCC(=O)NCCO [AEA, arachidonoyl ethanolamide] | > 64 µg/mL | more than 4 fold | ≥ 4 fold |
| COc1cccc(OC)c1C(=O)N[C@@H]1C(=O)N2[C@@H]1SC(C)(C)[C@@H]2C(=O)O [METH, methicillin, reference compound] | – | more than 4 fold | ≥ 4 fold |
